{
  "source": "PubChem BioAssay AID504467",
  "about": "(National Center for Advancing Translational Sciences (NCATS), 2011)",
  "note": "Out of some 330,000 compounds screened, about 7,700 (2.3%) were called active. This list was built around the results that the source calls inconclusive (neither active nor inactive); the mix of calls is not that of the screen. The call rests on the fitted dose curve; in most records, active means well fitted inhibition curve with a large enough effect; inconclusive means small, poorly fitted or top-dose-only effect, or effect the other way; inactive means flat fitted curve, though single readings scatter. Potencies beside an inconclusive call are fits to weak or partial responses and may not hold up. On the % scale 0 is the no-effect control and ±100 the full control effect; potency means the concentration at half of the fitted maximal effect.",
  "data": [
    {"test": "qHTS screen for small molecules that inhibit ELG1-dependent DNA repair in human embryonic kidney (HEK293T) cells expressing luciferase-tagged ELG1; further: nearly all actives have a fitted effect of over 55% in size", "conditions": "HEK293T ELG1-luciferase reporter, luminescence, 16 h, DNA damage induced by 5-fluorouridine; activity change, negative = inhibition: at 46.1 µM (top of the series)", "method_in_brief": "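Step one: seed 2,000 cells per well. Step two: pin-transfer compound or DMSO alongside 5-fluorouridine. Step three: incubate 16 hr, 37 °C, 5% CO2. Step four: add ONE-Glo, wait 30 min, read luminescence.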", "values": [
      {"smiles": "O=C(O)c1cc(/C=C/c2ccc(N3CCOCC3)c([N+](=O)[O-])c2)nc2ccccc12", "Potency": "inconclusive: 20.6 µM [activator, partial curve]"},
      {"smiles": "O=C(NCCc1cccs1)C1CC(c2ccccc2[N+](=O)[O-])=NO1", "note": "(stereo not drawn)", "Potency": "inconclusive: 23.1 µM [activator, partial curve]"},
      {"smiles": "c1ccc2c(c1)COC(CNC1CCCCC1)OC2", "Potency": "inconclusive: 18.3 µM [activator, single point]"},
      {"smiles": "O=C(CSc1cn(Cc2ccccc2)c2ccccc12)Nc1nccs1", "Potency": "inconclusive: 6.51 µM [activator, partial curve]"},
      {"smiles": "COc1ccccc1NS(=O)(=O)c1ccc(C)c(C(=O)N2CCCC2)c1", "activity change, negative = inhibition": "inactive: 2.94%"},
      {"smiles": "Cc1nc2ccccc2c(=O)n1/N=C/c1ccccc1F", "Potency": "inconclusive: 14.6 µM [activator, partial curve]"},
      {"smiles": "O=C(/C=C/c1ccco1)Nc1ccccc1N1CCOCC1", "activity change, negative = inhibition": "inactive: -5.86%"},
      {"smiles": "COc1cccc(C(=O)NNS(=O)(=O)c2ccc(C)cc2)c1", "activity change, negative = inhibition": "inactive: -1.68%"},
      {"smiles": "COc1ccc(NC(=O)c2ccc(-n3cccn3)c([N+](=O)[O-])c2)cc1", "activity change, negative = inhibition": "inactive: -4.02%"},
      {"smiles": "CN1C(=O)c2ccc(C(=O)NC3CCCCC3)cc2C1=O", "Potency": "inconclusive: 0.92 µM [activator, full curve, poor fit]"},
      {"smiles": "CC1CCCN(C(=O)CNC(=O)c2cccs2)C1", "note": "(stereo not drawn)", "Potency": "inconclusive: 18.3 µM [activator, partial curve]"},
      {"smiles": "CCOc1ccc(/C=N/Nc2ccccn2)cc1", "Potency": "inconclusive: 3.26 µM [activator, full curve]"},
      {"smiles": "Cc1c(C)c2ccc(OCC(=O)Nc3ccccn3)cc2oc1=O", "Potency": "inconclusive: 0.58 µM [activator, full curve]"},
      {"smiles": "CC(=O)N(C)c1ccc(OCC(O)Cn2c(C)nc3ccccc32)cc1", "note": "(stereo not drawn)", "Potency": "active: 9.2 µM"},
      {"smiles": "O=S1(=O)Cc2cc3ccccc3cc2C1", "Potency": "inconclusive: 18.3 µM [activator, partial curve, poor fit]"},
      {"smiles": "COc1ccc(S(=O)(=O)N2CCN(C(=O)CCc3c[nH]c4ccccc34)CC2)cc1", "Potency": "inconclusive: 7.3 µM [inhibitor, partial curve, poor fit]"},
      {"smiles": "Cc1cc(C(=O)Nc2ccccc2C(=O)N2CCCCC2)ccc1[N+](=O)[O-]", "Potency": "inconclusive: 20.6 µM [inhibitor, partial curve, poor fit]"},
      {"smiles": "Nc1c2c(nn1-c1ccccc1)CCC2", "Potency": "inconclusive: 18.3 µM [activator, partial curve, poor fit]"},
      {"smiles": "CC(C)c1ccc2[nH]c(O)c(N=NC(=O)c3cccc(S(=O)(=O)Nc4ccc(Cl)cc4)c3)c2c1", "activity change, negative = inhibition": "inactive: -4.28%"},
      {"smiles": "Cc1scc(C(=O)N2CCN(c3ccc(Cl)cc3)CC2)c1C", "Potency": "inconclusive: 20.6 µM [inhibitor, partial curve, poor fit]"},
      {"smiles": "Cc1ccc(-n2nnnc2SCC(=O)Nc2ccccc2-c2ccccc2)cc1C", "Potency": "inconclusive: 23.1 µM [inhibitor, single point]"},
      {"smiles": "Cc1c(NC(=O)C(=O)/C=C(/O)c2ccccc2)c(=O)n(-c2ccccc2)n1C", "Potency": "inconclusive: 20.6 µM [activator, partial curve, poor fit]"},
      {"smiles": "Cc1cc(NC(=O)Cn2cnc3sc(C)c(C)c3c2=O)no1", "activity change, negative = inhibition": "inactive: -0.01%"},
      {"smiles": "Cc1ccc(OCC(=O)c2ccc(Cl)s2)c([N+](=O)[O-])n1", "activity change, negative = inhibition": "inactive: 13%"},
      {"smiles": "COc1ccc2nc(C)cc(SCC(=O)N/N=C/c3c(OC)ccc4ccccc34)c2c1", "activity change, negative = inhibition": "inactive: -3.2%"},
      {"smiles": "COC(=O)c1c(NC(=O)COC(=O)[C@@H](NS(=O)(=O)c2cccc(Cl)c2)C(C)C)sc2c1CCC2", "Potency": "inconclusive: 20.6 µM [inhibitor, partial curve]"},
      {"smiles": "Cc1nnsc1C(=O)N/N=C/c1ccc(OC(F)(F)F)cc1", "Potency": "inconclusive: 32.6 µM [activator, partial curve, poor fit]"},
      {"smiles": "Cc1cccc(-n2nnc3cnn(C)c3c2=O)c1", "Potency": "inconclusive: 2.31 µM [inhibitor, single point]"},
      {"smiles": "Cc1ccc(O)c(-c2cc(-c3ccccc3F)[nH]n2)c1", "Potency": "inconclusive: 10.3 µM [activator, partial curve]"},
      {"smiles": "Cc1cccc(OCCCC(=O)Nc2ccc(S(=O)(=O)Nc3nccs3)cc2)c1C", "activity change, negative = inhibition": "inactive: -7.45%"},
      {"smiles": "Cc1nn(-c2ccccc2)c2c1C(c1ccc(O)c(O)c1)N1C(=N2)C(Nc2ccccc2)=Nc2ccccc21", "note": "(stereo not drawn)", "activity change, negative = inhibition": "inactive: -1.42%"},
      {"smiles": "Cc1cccc(COc2ccc(/C=N/NC(=O)c3nnn(-c4nonc4N)c3COc3ccc(F)cc3)cc2)c1", "Potency": "inconclusive: 3.26 µM [activator, partial curve, poor fit]"},
      {"smiles": "COc1ccccc1NC(=O)CN1CCN(CC(=O)Nc2ccc(Cl)c(C(F)(F)F)c2)CC1", "Potency": "active: 18.4 µM"},
      {"smiles": "Nc1ncnc2c1ncn2[C@@H]1O[C@H](CNC(=O)[C@@H]2C[C@H](F)CN2)[C@@H](O)[C@H]1O", "activity change, negative = inhibition": "inactive: 10.5%"},
      {"smiles": "O=C(Nc1nc(-c2ccc(Cl)cc2)cs1)C1=COCCO1", "Potency": "inconclusive: 16.4 µM [activator, partial curve]"},
      {"smiles": "Cc1nn(Cc2cccc(F)c2)c(C)c1NC(=O)c1ccc(COc2ccccc2Cl)cc1", "Potency": "inconclusive: 29.1 µM [inhibitor, single point]"},
      {"smiles": "c1ccc(Cn2c3ccccc3c3nnc(SCCN4CCCCC4)nc32)cc1", "Potency": "inconclusive: 16.4 µM [inhibitor, single point]"},
      {"smiles": "COc1ccc(C2=NN(C(=O)CSc3nc(=O)n4cccc(C)c4n3)C(c3ccc(C)cc3)C2)cc1", "note": "(stereo not drawn)", "activity change, negative = inhibition": "inactive: 11.5%"},
      {"smiles": "COC(=O)c1ccc(NC(=S)NC2CCCCC2)cc1", "Potency": "inconclusive: 29.1 µM [activator, single point]"},
      {"smiles": "COc1ccc(-n2c(=O)c3ccccc3n(CC(=O)c3ccccc3)c2=O)cc1OC", "activity change, negative = inhibition": "inactive: -4.65%"},
      {"smiles": "CC1CCN(CCCNC(=O)c2ccc(CS(=O)(=O)Cc3ccc(Cl)cc3)o2)CC1", "Potency": "inconclusive: 16.4 µM [activator, single point]"},
      {"smiles": "COc1cc(NC(=O)CN2CCN(S(=O)(=O)c3ccc(C(C)C)cc3)CC2)cc(OC)c1", "Potency": "inconclusive: 14.6 µM [inhibitor, single point]"},
      {"smiles": "COc1ccc(NC(=O)Cn2nnc(C(=O)NCc3cccs3)c2N)cc1", "Potency": "inconclusive: 29.1 µM [activator, partial curve, poor fit]"}
    ]}
  ]
}
